Results taken from publication PMC6445127, “WNT5A is transported via lipoprotein particles in the cerebrospinal fluid to regulate hindbrain morphogenesis” (Nature Communications, 2019).

Molecular target: T1, mouse V5-tagged WNT5A, secreted by TR-CSFB cells (mouse) (UniProt P22725)
T1 sequence: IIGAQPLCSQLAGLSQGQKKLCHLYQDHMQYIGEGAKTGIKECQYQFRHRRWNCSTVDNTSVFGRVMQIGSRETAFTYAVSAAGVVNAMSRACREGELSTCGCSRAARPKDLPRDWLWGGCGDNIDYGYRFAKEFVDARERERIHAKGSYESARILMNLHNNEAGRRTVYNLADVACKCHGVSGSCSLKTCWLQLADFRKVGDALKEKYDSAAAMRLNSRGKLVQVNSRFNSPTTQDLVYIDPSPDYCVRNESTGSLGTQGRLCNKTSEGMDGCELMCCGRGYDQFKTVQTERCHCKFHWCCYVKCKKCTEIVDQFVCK
Test: affinity purification with mass spectrometry; WNT5A-V5 pull-down from conditioned medium of TR-CSFB cells; on-bead trypsin digest, LC-MS/MS, search against UniProtKB mouse

binding, binds:
Vitamin D-binding protein
Apolipoprotein A-II
Apolipoprotein A-I

These are yes or no findings as the source states them, for the method shown. In cells and extracts the contact can be indirect. These calls come from enrichment with a bait or labelling near it, and not all partners need be listed. Where a sequence is shown, tags or fusion partners need not be part of it.
